{"source": "patent US11466240B2", "about": "“Microfluidic platform for the rapid production of organoids/spheroids for compound screening” (THE GOVERNING COUNCIL OF THE UNIVERSITY OF TORONTO, priority 2017, dated 2022)", "test_system": "multi-cellular spheroids", "test": "Penetration and washing out of dye in microgels with multi-cellular spheroids under flow"}
{"substance": "Fluorescein isothiocyanate-dextran [FITC-dextran]", "values": [{"measurement": "reduction of mean fluorescence intensity in microgels with spheroids", "setting": "after the first 20 min washing with dye-free medium, 0.1 mL/h", "value": "~80", "unit": "%"}, {"measurement": "reduction of mean fluorescence intensity in microgels with spheroids", "setting": "during subsequent 50 min washing", "value": "~10", "unit": "%"}]}
